Assay [1] has as its target RAP1B (human (endogenous in LOVO)) (UniProt P61224). The experiment in a line: co-IP; endogenous proteins in LOVO cell lysate (also LOVO-shNC/LOVO-shFN1#1/LOVO-shFN1#2 knock-down cells); IP with anti-RAP1B antibody, IgG as negative control, 4°C overnight, protein A agarose; western blot. (Immunoblotting shows a protein as a band on a membrane.)
For assay [2], the target named is HA-RAP1B (UniProt P61224). Kind of assay: co-IP; cells transfected with Flag-PARK2 and HA-RAP1B plasmids; IP with anti-HA antibody; immunoblot.
For assay [3], the target named is HA-RAP1B (UniProt P61224). Kind of assay: co-IP; 293 T cells co-transfected with HA-RAP1B, Flag-PARK2, and/or Myc-FN1; western blot of Flag, HA, Myc tagged proteins after immunoprecipitation.

Amino acid sequences for entries named in this document (tags omitted).
UniProt P61224: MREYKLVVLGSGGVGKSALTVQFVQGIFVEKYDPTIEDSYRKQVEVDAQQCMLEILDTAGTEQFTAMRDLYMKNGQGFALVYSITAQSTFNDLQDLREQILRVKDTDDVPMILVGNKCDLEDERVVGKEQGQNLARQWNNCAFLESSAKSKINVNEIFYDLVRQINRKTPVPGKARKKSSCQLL
UniProt O60260: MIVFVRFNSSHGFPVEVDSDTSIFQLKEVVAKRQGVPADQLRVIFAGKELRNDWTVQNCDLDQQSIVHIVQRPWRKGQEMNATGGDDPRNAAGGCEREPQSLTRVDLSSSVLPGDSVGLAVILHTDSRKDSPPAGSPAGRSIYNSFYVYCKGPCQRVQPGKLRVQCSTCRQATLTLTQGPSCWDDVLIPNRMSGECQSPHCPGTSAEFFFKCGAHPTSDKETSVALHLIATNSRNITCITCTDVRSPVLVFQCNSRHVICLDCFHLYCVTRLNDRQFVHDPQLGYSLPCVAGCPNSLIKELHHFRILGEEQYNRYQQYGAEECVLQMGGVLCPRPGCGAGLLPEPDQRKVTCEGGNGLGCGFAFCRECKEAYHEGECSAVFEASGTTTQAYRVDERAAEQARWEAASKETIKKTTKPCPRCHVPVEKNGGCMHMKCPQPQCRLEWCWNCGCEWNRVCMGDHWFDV

Results are given in words; binding and its absence hold for the method and conditions named. In cells and extracts the contact can be indirect. Some entries that bind do so weakly or less than the wild type.

In the case of “PARK2 (from UniProt O60260 1-465) (enzyme)”, in assay [1], the binding entry is recorded as “binds”.
Consider “Flag-PARK2 (from UniProt O60260 1-465) (enzyme)”, for which the binding entry in assay [2] and in assay [3] was “binds” in each case.

The values are drawn from PMC12244390.
